# Test results: the supplement of paper PMC8728848
# The list shows a part of the results.
# B1: SabA (Helicobacter pylori) (protein)
# chain: MGSSHHHHHHSSGLVPRGSHMENLYFQGEDNGFFVSAGYQIGEAVQMVKNTGELKNLNEKYEQLSQYLNQVASLKQSIQNANNIELVNSSLNYLKSFTNNNYNSTTQSPIFNAVQAVITSVLGFWSLYAGNYFTFFVGKKVGDSGQPASVQGNPPFKTIIENCSGIENCAMDQTTYDKMKKLAEDLQAAQTNSATKGNNLCALSGCAATDSTSNPPNSTVSNALNLAQQLMDLIANTKTAMMWKNIVISGVSNTSGAITSTNYPTQYAVFNNIKAMIPILQQAVTLSQSNHTLSASLQAQATGSQTNPKFAKDIYTFAQNQKQVISYAQDIFNLFNSIPAEQYKYLEKAYLKIPNAGSTPTNPYRQVVNLNQEVQTIKNNVSYYGNRVDAALSVARDVYNLKSNQAEIVTAYNDAKTLSEEISKLPHNQVNTKDIVTLPYDKNAPAAGQSNYQINPEQQSNLNQALAAMSNNPFKKVGMISSQNNNGA
# Columns and labels:
# Assay in all cases: glycan array binding signal (z-score within array); higher = stronger binding
# Settings in all cases: glycan notation: IUPAC condensed, linker removed
# [1] = target: Neu5Gc(a2-8)Neu5Gc(a2-3)Gal(b1-4)GlcNAc(b1-3)Gal(b1-4)GlcNAc
# How it was run: (§1)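 Glycan array data came from 3228 arrays in the Consortium for Functional Glycomics database, and only arrays with an available protein sequence were kept. Glycan names were put into IUPAC-condensed notation, and columns mapping to the same glycan were averaged. The binding signal is a within-array Z-score, averaged across arrays of one protein sequence run at different concentrations or buffers and across linkers. A negative Z-score can be read as non-binding.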
# [2] = target: Neu5Gc(a2-8)Neu5Gc(a2-6)Gal(b1-4)GlcNAc
# How it was run: as §1
# [3] = target: Neu5Gc(b2-6)Gal(b1-4)GlcNAc
# How it was run: as §1
binder,measurement,setting,value
B1,glycan array binding signal (z-score),[1],-1.11
same,glycan array binding signal (z-score),[2],0.027
same,glycan array binding signal (z-score),[3],0.151
